Assay: Kugelrohr distillation (purification) of SMA in the presence of the inhibitors
Conditions: distilled SMA; 500 ppm inhibitor, kugelrohr 240 °C, about 0.2 mbar
Method: The temperature of the kugelrohr is set to 240° C. The distillation starts when the vacuum reached about 0.2 mbar. Polymerization in the rotating pitch is evaluated by visually determining increased viscosity.
The inhibitors were added as such to the SMA prior to the distillation, no methanolic solution as described earlier is used.

SMILES | Yield (%)
CCCCCCCCS(=O)(=O)[O-].CN(C)c1ccc2nc3ccc(N(C)C)cc3[s+]c2c1 [Inhibitor I-1, octanesulfonate salt of methylene blue] | 93%
CCCCCCCCS(=O)(=O)[O-].CN(C)c1ccc2nc3ccc(N(C)C)cc3[s+]c2c1.[Cl-].[Na+] [Inhibitor I-1a] | 92%
CCCCCCCCCCCCCCCCS(=O)(=O)[O-].CN(C)c1ccc2nc3ccc(N(C)C)cc3[s+]c2c1.[Cl-].[Na+] [Inhibitor I-2a] | 95%
